Protein sequences, listed by entry. Tags and fused reporters are not part of them. Lines headed by an entry give the natural chain unless they say otherwise; changes in a name come on top.
UniProt Q8KUU5: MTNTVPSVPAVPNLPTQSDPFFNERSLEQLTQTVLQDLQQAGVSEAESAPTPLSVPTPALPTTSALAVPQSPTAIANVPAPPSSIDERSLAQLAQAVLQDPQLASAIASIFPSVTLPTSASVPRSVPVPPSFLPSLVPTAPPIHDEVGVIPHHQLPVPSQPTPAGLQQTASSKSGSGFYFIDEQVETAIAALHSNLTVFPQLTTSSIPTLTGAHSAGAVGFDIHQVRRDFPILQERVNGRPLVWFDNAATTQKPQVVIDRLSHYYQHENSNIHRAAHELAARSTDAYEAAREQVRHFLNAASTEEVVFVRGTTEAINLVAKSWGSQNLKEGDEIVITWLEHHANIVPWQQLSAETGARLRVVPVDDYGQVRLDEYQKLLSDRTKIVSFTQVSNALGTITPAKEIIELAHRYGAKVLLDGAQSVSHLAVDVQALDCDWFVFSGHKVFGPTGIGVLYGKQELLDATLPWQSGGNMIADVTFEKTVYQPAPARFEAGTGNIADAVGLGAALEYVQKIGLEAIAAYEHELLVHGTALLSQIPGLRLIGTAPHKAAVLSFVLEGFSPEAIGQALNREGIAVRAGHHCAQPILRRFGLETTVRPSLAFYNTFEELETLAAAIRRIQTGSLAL

According to paper PMC8049743, “Discovery and characterization of a novel family of prokaryotic nanocompartments involved in sulfur metabolism” (eLife, 2021):

What was measured:
[1] = biological target: T1, SrpI encapsulin shell protein with C-terminal 6X-His tag, from inclusion bodies, refolded (Synechococcus elongatus PCC 7942) (UniProt Q55032); experiment: SEC; in vitro loading: shell unfolded in guanidine hydrochloride, refolded by 100-fold dilution (50 mM CAPS pH 10, 250 mM arginine, 150 mM NaCl, 20% glycerol, 10 mM DTT) with cargo at 10:1 cargo:compartment; compartment and cargo fractions separated by SEC and read by non-denaturing (sfGFP fluorescence) and denaturing SDS-PAGE; both purified
T1 sequence: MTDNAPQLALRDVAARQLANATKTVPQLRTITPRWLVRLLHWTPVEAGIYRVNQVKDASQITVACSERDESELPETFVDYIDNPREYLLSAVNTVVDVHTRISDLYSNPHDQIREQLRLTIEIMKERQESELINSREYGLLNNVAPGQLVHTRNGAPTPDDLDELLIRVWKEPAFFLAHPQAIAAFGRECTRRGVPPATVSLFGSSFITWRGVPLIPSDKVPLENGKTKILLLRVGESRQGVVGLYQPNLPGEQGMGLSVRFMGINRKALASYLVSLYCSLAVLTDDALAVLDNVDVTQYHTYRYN

[2] = biological target: T2, SrpI encapsulin shell protein (Synpcc7942_B2662), expressed in E. coli (Synechococcus elongatus PCC 7942) (UniProt Q55032); experiment: co-expression and sfGFP fluorescence of the nanocompartment band on SDS-PAGE; sfGFP fusion cargo co-expressed with the SrpI shell in E. coli; fluorescence of the high-molecular-weight band before Coomassie staining
T2 sequence: T1 sequence

[3] = biological target: T3, SrpI encapsulin shell protein, endogenous in S. elongatus PCC 7942 (Synechococcus elongatus PCC 7942 (endogenous)) (UniProt Q55032); experiment: non-denaturing SDS-PAGE of lysate with LC-MS of the excised high-molecular-weight band; clarified lysates of S. elongatus PCC 7942, nutrient-replete or sulfate-starved for 24 and 48 hr; silver stain; in-gel digestion
T3 sequence: T1 sequence

[4] = biological target: T1, SrpI encapsulin shell protein with C-terminal 6X-His tag, from inclusion bodies, refolded (Synechococcus elongatus PCC 7942); experiment: negative stain TEM; apo-SrpI and holo-SrpI (CyD loaded by refolding) at 300 nM in 50 mM CAPS pH 10, 250 mM arginine, 150 mM NaCl; uranyl formate; 3D reconstruction without symmetry, ~18 Å; difference map; both purified
[5] = biological target: T1, SrpI encapsulin shell protein with C-terminal 6X-His tag, from inclusion bodies, refolded (Synechococcus elongatus PCC 7942); experiment: cryo-EM structure; purified holo-SrpI, 2 mg/mL in 50 mM CAPS pH 10, 250 mM arginine, 150 mM NaCl, 0.05% NP-40; 2.2 Å; symmetry expansion and focused classification for cargo density; both purified

| Substance | binding [1] | binding [2] | further results |
| --- | --- | --- | --- |
| CyD N-terminal domain (residues 1–225) fused to sfGFP (from UniProt Q8KUU5) (domain or fragment) | binds | binds | – |
| Cysteine desulfurase CyD (Synpcc7942_B2661), endogenous in S. elongatus PCC 7942 (enzyme) | – | – | binding [3]: binds |
| Cysteine desulfurase CyD with the N-terminal domain removed (Synechococcus elongatus PCC 7942) (domain or fragment) | no binding | – | – |
| Entire cysteine desulfurase CyD fused to sfGFP (Synechococcus elongatus PCC 7942) (enzyme) | – | binds | – |
| First 100 amino acids of the CyD N-terminal domain fused to sfGFP (Synechococcus elongatus PCC 7942) (domain or fragment) | – | binds | – |
| Full-length cysteine desulfurase CyD (Synpcc7942_B2661), purified (Synechococcus elongatus PCC 7942) (enzyme) | binds | – | binding [4]: binds; binding [5]: binds |

No constants are given. Whether binding was seen depends on the method and setting. A result given as binding can be weak or reduced; the word gives no strength. For part of these data: Tags and fused reporters may be left off the sequences shown.
